{"source": "patent EP4272752A1", "about": "“PASIREOTIDE OR A PHARMACEUTICAL ACCEPTABLE SALT OR SOLVATE THEREOF, FOR USE IN PREVENTION OR DELAY OF BREAST CANCER IN A FEMALE MAMMAL” (Consejo Superior De Investigaciones Científicas (CSIC), priority 2022, dated 2023)", "key": {"Brca1/P53 deficient mice": {"tested_on": "Brca1/P53 deficient mice", "test": "Ki67 immunohistochemistry, ductal epithelial proliferation of the mammary gland", "type": "in vivo", "conditions": "treated vs untreated"}, "[1]": {"tested_on": "ErbB2/Neu+ nulliparous mice", "test": "Ki-67 proliferation in non-tumorous mammary glands", "type": "in vivo", "conditions": "longitudinal cohort, treated vs untreated, P=0.001"}}, "note": "Not every detail of the peptide structures is certain; ends, links or a residue may be inferred. *1 amine or outer side, *2 acyl side, *3 side chain or, on linkers, in order; H or OH if unused. Where a SMILES comes first, the peptide text is derived from it. Side-chain parts run from the residue outwards. [ ]: non-standard residue; d: D form. The star is where a group is joined. Ethylenediamine = C(CN[*:2])N[*:1]; Hyp = O=C(O)[C@@H]1C[C@@H](O)CN1; Phg = N[C@H](C(=O)O)c1ccccc1; CO = O=C([*:1])[*:2]; Bn = c1ccc(C*)cc1"}
{"smiles": "NCCCC[C@@H]1NC(=O)[C@@H](Cc2c[nH]c3ccccc23)NC(=O)[C@H](c2ccccc2)NC(=O)[C@@H]2C[C@@H](OC(=O)NCCN)CN2C(=O)[C@H](Cc2ccccc2)NC(=O)[C@H](Cc2ccc(OCc3ccccc3)cc2)NC1=O", "note": "[pasireotide, Pasireotide] (cyclo([Hyp]([CO-Ethylenediamine])[Phg][dW]KY(Bn)F))", "values": [{"measurement": "basal epithelial cell proliferation (Ki67)", "setting": "Brca1/P53 deficient mice; multiparous at five months (60 days after weaning)", "value": "The same was observed"}, {"measurement": "basal epithelial cell proliferation (Ki67)", "setting": "Brca1/P53 deficient mice; nulliparous at five months", "value": "ostensible decrease"}, {"measurement": "proliferation (Ki-67)", "setting": "[1]", "value": "significantly less proliferation"}]}
